Measured data: PubChem BioAssay AID1259254 (NCATS, 2017)

- Purpose: 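Genome-wide screen for genes that prevent DNA re-replication in cancer cells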 (primary screen)
- System: human HCT116 colorectal cancer cells
- Reagents: single siRNA against human genes
- Duration: 3 days
- Measurement: 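Imaged Hoechst DNA stain sorts each cell into a cycle phase by DNA amount; per plate, G2 fraction set to 0% for non-targeting and 100% for GMNN siRNA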
- Scale: G2 robust z-score and G2 cells, % of GMNN control: higher = more G2 cells, more excess DNA replication; raw share of cells in G2: higher = larger share of cells with G2 DNA content
- Active means: 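An siRNA counts as active if its G2 robust z-score lies at least 5 MADs above the screen median; here such calls match roughly 38% of GMNN control or more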
The deposit covers about 59,000 reagents; this is a random part of them. In the full data, about 1,550 (2.6%) were called active. 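G2 share is only a proxy for re-replication; each gene was hit by three separate siRNAs, and active genes were retested.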 The raw values are shown without normalisation. Reagents against one gene are numbered here. No sequences are given here. The record does not give: the amount of reagent.

The first 3 entries as a preview:
no.	gene symbol	reagent no.	G2 robust z-score	G2 cells, % of GMNN control	raw share of cells in G2 (%)	Call
1	CGGBP1	1	0.954	9.68	9.42	inactive
2	CGGBP1	2	-0.502	-0.565	3.67	inactive
3	CGGBP1	3	1.13	10.9	7.21	inactive

Main list, from the first entry:
no.	gene symbol	reagent no.	G2 robust z-score	G2 cells, % of GMNN control	raw share of cells in G2 (%)	Call
1	CGGBP1	1	0.954	9.68	9.42	inactive
2	CGGBP1	2	-0.502	-0.565	3.67	inactive
3	CGGBP1	3	1.13	10.9	7.21	inactive
4	CMC2	1	-0.398	0.169	3.08	inactive
5	CMC2	2	-0.516	-0.661	4.09	inactive
6	CMC2	3	0.818	8.72	8.63	inactive
7	RETNLB	1	-0.279	1	4.44	inactive
8	RETNLB	2	1.03	10.2	6.49	inactive
9	RETNLB	3	-0.0328	2.74	3.24	inactive
10	PPP2R2C	1	-0.135	2.01	5.45	inactive
11	PPP2R2C	2	0.735	8.14	6.76	inactive
12	PPP2R2C	3	0.0713	3.47	4.54	inactive
13	CCR5	1	3	24.1	14.4	inactive
14	CCR5	2	0.839	8.87	7.62	inactive
15	CCR5	3	-0.0884	2.35	3.99	inactive
16	TMEM33	1	1.55	13.9	7.57	inactive
17	TMEM33	2	0.385	5.68	6.71	inactive
18	TMEM33	3	-0.0538	2.59	5.21	inactive
19	HES3	1	-0.432	-0.0702	4.26	inactive
20	HES3	2	2.1	17.8	11.9	inactive
21	HES3	3	-0.431	-0.0617	5.88	inactive
22	NUP155	1	-0.511	-0.626	4.97	inactive
23	NUP155	2	-0.672	-1.76	2.6	inactive
24	NUP155	3	0.185	4.27	6.48	inactive
25	CZ1P-ASNS	1	1.25	11.8	8.17	inactive
26	CZ1P-ASNS	2	-0.356	0.465	3.59	inactive
27	CZ1P-ASNS	3	1.09	10.6	6.74	inactive
28	ARHGEF10	1	-0.0436	2.66	6.49	inactive
29	ARHGEF10	2	-0.112	2.18	5.68	inactive
30	ARHGEF10	3	-0.717	-2.08	3.13	inactive
31	CLNS1A	1	-1.19	-5.43	2.22	inactive
32	CLNS1A	2	0.278	4.93	6.72	inactive
33	CLNS1A	3	1.15	11.1	9.04	inactive
34	ECHDC2	1	0.933	9.53	7.86	inactive
35	ECHDC2	2	-0.637	-1.51	3.7	inactive
36	ECHDC2	3	-0.105	2.23	7.41	inactive
37	WDR89	1	0.997	9.99	8.09	inactive
38	WDR89	2	2.37	19.7	9.19	inactive
39	WDR89	3	-0.786	-2.56	1.07	inactive
40	SLC12A3	1	2.65	21.6	12	inactive
41	SLC12A3	2	0.15	4.02	5.29	inactive
42	SLC12A3	3	-0.529	-0.755	5.43	inactive
43	HOXB4	1	-0.699	-1.95	3.49	inactive
44	HOXB4	2	-0.63	-1.46	4.51	inactive
45	HOXB4	3	0.463	6.22	8.05	inactive
46	PSMD4	1	4.04	31.4	15.9	inactive
47	PSMD4	2	-0.275	1.04	5.33	inactive
48	PSMD4	3	2.35	19.5	10.2	inactive
49	CREB3L3	1	-0.409	0.0917	4.23	inactive
50	CREB3L3	2	-0.944	-3.67	3.43	inactive
51	CREB3L3	3	-1.15	-5.14	3.29	inactive
52	BCAR3	1	0.57	6.98	8.23	inactive
53	BCAR3	2	0.44	6.07	6.3	inactive
54	BCAR3	3	2.41	20	10.4	inactive
55	TRIM32	1	0.0653	3.43	7.74	inactive
56	TRIM32	2	-0.186	1.66	4.71	inactive
57	TRIM32	3	-0.426	-0.0293	3.86	inactive
58	PTGES3P3	1	1.39	12.8	8.55	inactive
59	PTGES3P3	2	-0.0418	2.67	4.43	inactive
60	PTGES3P3	3	-0.0927	2.32	3.91	inactive
61	SPAG17	1	-0.368	0.379	3.74	inactive
62	SPAG17	2	-0.461	-0.279	2.87	inactive
63	SPAG17	3	0.125	3.85	3.98	inactive
64	CYP1B1-AS1	1	1.32	12.3	8.11	inactive
65	CYP1B1-AS1	2	-0.112	2.18	3.89	inactive
66	CYP1B1-AS1	3	2.64	21.5	9.81	inactive
67	SHOX2	1	1.64	14.5	10.6	inactive
68	SHOX2	2	-1.08	-4.62	2.96	inactive
69	SHOX2	3	1.74	15.2	8.99	inactive
70	IQGAP1	1	-0.755	-2.35	3.47	inactive
71	IQGAP1	2	-0.972	-3.87	3.91	inactive
72	IQGAP1	3	-1.31	-6.25	2.47	inactive
73	SH3RF2	1	-0.463	-0.289	3.5	inactive
74	SH3RF2	2	0.737	8.16	5.69	inactive
75	SH3RF2	3	-0.658	-1.66	2.24	inactive
76	CELF2-AS2	1	4.2	32.5	18.3	inactive
77	CELF2-AS2	2	1.09	10.6	7.68	inactive
78	CELF2-AS2	3	2.36	19.6	11.3	inactive
79	IFT88	1	-0.775	-2.49	4.55	inactive
80	IFT88	2	2.5	20.6	11.3	inactive
81	IFT88	3	-0.758	-2.37	3.38	inactive
82	SLC13A1	1	-0.571	-1.05	4.19	inactive
83	SLC13A1	2	-0.24	1.28	6.11	inactive
84	SLC13A1	3	-1.5	-7.57	1.45	inactive
85	PRR23E	1	0.295	5.04	5.48	inactive
86	PRR23E	2	-0.447	-0.18	2.97	inactive
87	PRR23E	3	-0.356	0.466	3.41	inactive
